Test: general procedure: Fmoc solid-phase peptide synthesis; Fmoc-Ser(t-Bu)-WANG resin loaded at 0.82 mmol/g; DCC and HOBt
Details: conjugation step, HPLC system A, acetate salt

des-Acetylvinblastine-4-O-(N-Acetyl-4-trans-L-Hyp-Ser-Ser-Chg-Gln-Ser-Ser-Pro) ester acetate
final HPLC purity: 98.9% pure
